Publication PMC6422069

T1: MNV NS4 (murine norovirus MNV-1 (strain CW1)) (UniProt Q80J95)
T1 sequence: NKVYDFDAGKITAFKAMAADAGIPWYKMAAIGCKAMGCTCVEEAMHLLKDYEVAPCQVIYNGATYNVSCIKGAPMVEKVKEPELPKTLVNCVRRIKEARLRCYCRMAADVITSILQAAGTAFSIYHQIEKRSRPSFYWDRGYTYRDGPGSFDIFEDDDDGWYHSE

T2: MNV NS1/2 (murine norovirus MNV-1 (strain CW1)) (UniProt Q80J95)
T2 sequence: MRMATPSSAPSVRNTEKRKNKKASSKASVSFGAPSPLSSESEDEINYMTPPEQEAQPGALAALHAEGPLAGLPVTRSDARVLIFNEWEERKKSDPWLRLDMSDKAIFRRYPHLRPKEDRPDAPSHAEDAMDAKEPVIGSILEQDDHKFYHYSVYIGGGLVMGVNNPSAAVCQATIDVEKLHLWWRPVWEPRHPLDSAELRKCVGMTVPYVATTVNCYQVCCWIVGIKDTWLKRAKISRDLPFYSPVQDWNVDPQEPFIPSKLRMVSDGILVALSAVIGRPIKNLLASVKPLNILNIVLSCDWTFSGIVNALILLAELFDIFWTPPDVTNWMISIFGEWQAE

T3: MNV NS7 (murine norovirus MNV-1 (strain CW1)) (UniProt Q80J95)
T3 sequence: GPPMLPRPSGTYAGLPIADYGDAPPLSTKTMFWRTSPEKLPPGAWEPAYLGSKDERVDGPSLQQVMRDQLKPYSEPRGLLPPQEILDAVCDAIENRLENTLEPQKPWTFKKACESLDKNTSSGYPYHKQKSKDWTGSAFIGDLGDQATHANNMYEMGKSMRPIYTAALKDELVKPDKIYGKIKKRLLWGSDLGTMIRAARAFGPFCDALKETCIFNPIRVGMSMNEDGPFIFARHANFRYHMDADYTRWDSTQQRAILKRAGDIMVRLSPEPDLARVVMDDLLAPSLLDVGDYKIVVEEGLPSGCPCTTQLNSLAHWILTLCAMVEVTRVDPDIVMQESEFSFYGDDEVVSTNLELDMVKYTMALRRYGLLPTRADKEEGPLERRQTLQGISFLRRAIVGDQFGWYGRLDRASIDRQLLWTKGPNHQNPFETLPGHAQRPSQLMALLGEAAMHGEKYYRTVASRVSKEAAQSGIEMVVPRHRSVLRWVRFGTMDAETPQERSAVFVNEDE

T4: MNV NS3 (murine norovirus MNV-1 (strain CW1)) (UniProt Q80J95)
T4 sequence: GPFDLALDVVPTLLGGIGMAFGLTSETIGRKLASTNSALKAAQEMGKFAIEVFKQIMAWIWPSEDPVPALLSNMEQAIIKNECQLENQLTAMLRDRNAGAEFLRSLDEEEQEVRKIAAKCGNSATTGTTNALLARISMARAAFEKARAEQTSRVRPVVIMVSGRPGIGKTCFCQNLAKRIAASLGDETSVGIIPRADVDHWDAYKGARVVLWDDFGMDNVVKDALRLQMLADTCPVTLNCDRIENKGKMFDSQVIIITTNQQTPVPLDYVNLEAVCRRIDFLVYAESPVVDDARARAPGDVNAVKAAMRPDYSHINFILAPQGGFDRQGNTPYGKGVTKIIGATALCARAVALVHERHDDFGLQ


How the values were obtained:
Experiment in all cases: co-IP; LUMIER assay: protein A fusion (bait) and Renilla luciferase fusion (prey) co-transfected in HEK-293T cells, lysed after 24 h (PBS pH 7.4, 1% Triton X-100, 0.1% BSA, 1 mM DTT, benzonase), bait precipitated on anti-protein A magnetic beads for 90 min at 4 °C, six washes, bound luciferase activity read; robust Z-scores; in quadruplicate
[1] = target: T1, MNV NS4 (murine norovirus MNV-1 (strain CW1))
[2] = target: T2, MNV NS1/2 (murine norovirus MNV-1 (strain CW1))
[3] = target: T3, MNV NS7 (murine norovirus MNV-1 (strain CW1))
[4] = target: T4, MNV NS3 (murine norovirus MNV-1 (strain CW1))
[5] = target: MNV minor capsid protein VP2 (murine norovirus MNV-1 (strain CW1))

Molecule | binding [1] | binding [2] | binding [3] | binding [4] | binding [5]
MNV minor capsid protein VP2 (murine norovirus MNV-1 (strain CW1)) | no binding | no binding | no binding | no binding | 
MNV NS6 (enzyme, UniProt Q80J95 995-1177) APVSIWSRVVQFGTGWGFWVSGHVFITAKHVAPPKGTEIFGRKPGDFTVTSSGDFLKYYFTSAVRPDIPAMVLENGCQEGVVASVLVKRASGEMLALAVRMGSQAAIKIGSAVVHGQTGMLLTGSNAKAQDLGTIPGDCGCPYVYKKGNTWVVIGVHVAATRSGNTVIAATHGEPTLEALEFQ |  |  |  |  | no binding

These are yes or no findings as the source states them, for the method shown. In cells and extracts the contact can be indirect.
